# In patent US20210038687A1:
# These are yes or no findings as the source states them, for the method shown. Some binding calls cover weakened binding; strength is not graded here.
# Assays:
# [1] = target: purified bovine cardiac alpha-tropomyosin (bovine) (UniProt Q5KR49); experiment: competitive ELISA; tropomyosin coated, competitor intact bovine cardiac TnI, detection by mAb 4H6
# [2] = target: purified bovine cardiac alpha-tropomyosin (bovine) (UniProt Q5KR49); experiment: competitive ELISA; tropomyosin coated, competitor intact cardiac TnI
binder,measurement,setting,value
ENREVGDWRKNIDALSGMEGRKKKFES [HcTnI-C27 peptide (the C-terminal 27 amino acid peptide of human cardiac TnI)],binding,[1],binds
same,binding,[2],binds
